# The other results are listed elsewhere or left out.
# B1: Epa3to2 (Candida glabrata) (protein)
# chain: MGSSHHHHHHSSGLVPRGSHMKRELSSQNPFGYPIGCSPQDVAIIPGLTMELYSYPIVSGTPPNCYDASYVDPEYPRTGYLKRKMVGKSTGVTGNLNYKYSVEKACMVKYGNLPAGYNYNEPLTVSNFTMILYGYFKAQTTGLHTFFVNADDLLYINFGAGNAFDCCKREDSKTKLGEYVAYDIWHVDSSKNKVSLFLEKDLYYPIRMFFNNRDNNSSLDLSFSVNGATDQISDFSGYLYSVPDQPDTCPAHIGYDTTCR
# Experiments:
# Assay in all cases: glycan array binding signal (z-score within array); higher = stronger binding
# Details in all cases: glycan notation: IUPAC condensed, linker removed
# [1] = target: Fuc(a1-2)Gal(b1-4)GlcNAc(b1-3)Gal(b1-4)GlcNAc(b1-3)Gal(b1-4)GlcNAc
# Method in brief: (§1)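 From the Consortium for Functional Glycomics database, 3228 arrays were curated, keeping only those whose protein sequence was available. Binding is given as a within-array Z-score averaged across arrays sharing a protein sequence and across linkers. Negative Z-scores can be read as non-binding.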
# [2] = target: Fuc(a1-2)Gal(b1-4)GlcNAc(b1-3)GalNAc
# Method in brief: as §1
# [3] = target: Fuc(a1-2)Gal(b1-4)GlcNAc(b1-3)[Fuc(a1-2)Gal(b1-4)GlcNAc(b1-6)]GalNAc
# Method in brief: as §1
# [4] = target: Fuc(a1-2)Gal(b1-4)GlcNAc(b1-3)[Fuc(a1-3)[Gal(b1-4)]GlcNAc(b1-6)]Gal(b1-4)Glc
# Method in brief: as §1
# [5] = target: Fuc(a1-2)Gal(b1-4)GlcNAc(b1-6)GalNAc
# Method in brief: as §1
# [6] = target: Fuc(a1-2)Gal(b1-4)GlcNAc6S
# Method in brief: as §1
# [7] = target: Fuc(a1-2)Gal(b1-4)[Fuc(a1-3)]GlcNAc
# Method in brief: as §1
# [8] = target: Fuc(a1-2)Gal(b1-4)[Fuc(a1-3)]GlcNAc(b1-2)Man(a1-3)[Fuc(a1-2)Gal(b1-4)[Fuc(a1-3)]GlcNAc(b1-2)Man(a1-6)]Man(b1-4)GlcNAc(b1-4)[Fuc(a1-6)]GlcNAc
# Method in brief: as §1
# [9] = target: Fuc(a1-2)Gal(b1-4)[Fuc(a1-3)]GlcNAc(b1-2)[Fuc(a1-2)Gal(b1-4)[Fuc(a1-3)]GlcNAc(b1-4)]Man(a1-3)[Fuc(a1-2)Gal(b1-4)[Fuc(a1-3)]GlcNAc(b1-2)Man(a1-6)]Man(b1-4)GlcNAc(b1-4)GlcNAc
# Method in brief: as §1
# [10] = target: Fuc(a1-2)Gal(b1-4)[Fuc(a1-3)]GlcNAc(b1-3)Gal(b1-4)[Fuc(a1-3)]GlcNAc
# Method in brief: as §1
# [11] = target: Fuc(a1-2)Gal(b1-4)[Fuc(a1-3)]GlcNAc(b1-3)Gal(b1-4)[Fuc(a1-3)]GlcNAc(b1-3)Gal(b1-4)[Fuc(a1-3)]GlcNAc
# Method in brief: as §1
# [12] = target: Fuc(a1-2)Gal(b1-4)[Fuc(a1-3)]GlcNAc(b1-3)GalNAc
# Method in brief: as §1
# [13] = target: Fuc(a1-2)Gal(b1-4)[Fuc(a1-3)]GlcNAc(b1-3)[Neu5Ac(a2-6)Gal(b1-4)GlcNAc(b1-6)]Gal(b1-4)Glc
# Method in brief: as §1
# [14] = target: Fuc(a1-2)Gal3S(b1-4)GlcNAc
# Method in brief: as §1
# [15] = target: Fuc(a1-2)Gal6S(b1-3)GlcNAc
# Method in brief: as §1
# [16] = target: Fuc(a1-2)Gal6S(b1-3)GlcNAc6S
# Method in brief: as §1
# [17] = target: Fuc(a1-2)Gal6S(b1-4)Glc
# Method in brief: as §1
# [18] = target: Fuc(a1-2)Gal6S(b1-4)Glc6S
# Method in brief: as §1
# [19] = target: Fuc(a1-2)[Gal(a1-3)]Gal
# Method in brief: as §1
# [20] = target: Fuc(a1-2)[Gal(a1-3)]Gal(b1-3)GalNAc
# Method in brief: as §1
# [21] = target: Fuc(a1-2)[Gal(a1-3)]Gal(b1-3)GalNAc(b1-3)Gal(a1-4)Gal(b1-4)Glc
# Method in brief: as §1
# [22] = target: Fuc(a1-2)[Gal(a1-3)]Gal(b1-3)GlcNAc
# Method in brief: as §1
# [23] = target: Fuc(a1-2)[Gal(a1-3)]Gal(b1-3)GlcNAc(b1-2)Man(a1-3)[Fuc(a1-2)[Gal(a1-3)]Gal(b1-3)GlcNAc(b1-2)Man(a1-6)]Man(b1-4)GlcNAc(b1-4)GlcNAc
# Method in brief: as §1
# [24] = target: Fuc(a1-2)[Gal(a1-3)]Gal(b1-3)GlcNAc(b1-2)Man(a1-3)[Fuc(a1-2)[Gal(a1-3)]Gal(b1-3)GlcNAc(b1-2)Man(a1-6)]Man(b1-4)GlcNAc(b1-4)[Fuc(a1-6)]GlcNAc
# Method in brief: as §1
# [25] = target: Fuc(a1-2)[Gal(a1-3)]Gal(b1-3)GlcNAc(b1-3)GalNAc
# Method in brief: as §1
# [26] = target: Fuc(a1-2)[Gal(a1-3)]Gal(b1-3)GlcNAc(b1-6)GalNAc
# Method in brief: as §1
# [27] = target: Fuc(a1-2)[Gal(a1-3)]Gal(b1-4)Glc
# Method in brief: as §1
# [28] = target: Fuc(a1-2)[Gal(a1-3)]Gal(b1-4)GlcNAc
# Method in brief: as §1
# [29] = target: Fuc(a1-2)[Gal(a1-3)]Gal(b1-4)GlcNAc(b1-2)Man
# Method in brief: as §1
# [30] = target: Fuc(a1-2)[Gal(a1-3)]Gal(b1-4)GlcNAc(b1-2)Man(a1-3)[Fuc(a1-2)[Gal(a1-3)]Gal(b1-4)GlcNAc(b1-2)Man(a1-6)]Man(b1-4)GlcNAc(b1-4)GlcNAc
# Method in brief: as §1
binder,measurement,setting,value
B1,glycan array binding signal (z-score),[1],-0.318
same,glycan array binding signal (z-score),[2],-0.913
same,glycan array binding signal (z-score),[3],1.22
same,glycan array binding signal (z-score),[4],-0.565
same,glycan array binding signal (z-score),[5],-0.057
same,glycan array binding signal (z-score),[6],-0.709
same,glycan array binding signal (z-score),[7],-0.245
same,glycan array binding signal (z-score),[8],2.47
same,glycan array binding signal (z-score),[9],1.22
same,glycan array binding signal (z-score),[10],-0.557
same,glycan array binding signal (z-score),[11],-1.04
same,glycan array binding signal (z-score),[12],-1.02
same,glycan array binding signal (z-score),[13],-0.324
same,glycan array binding signal (z-score),[14],-0.104
same,glycan array binding signal (z-score),[15],0.309
same,glycan array binding signal (z-score),[16],2.11
same,glycan array binding signal (z-score),[17],0.725
same,glycan array binding signal (z-score),[18],0.101
same,glycan array binding signal (z-score),[19],-0.097
same,glycan array binding signal (z-score),[20],1.16
same,glycan array binding signal (z-score),[21],1.1
same,glycan array binding signal (z-score),[22],-0.392
same,glycan array binding signal (z-score),[23],-0.575
same,glycan array binding signal (z-score),[24],0.353
same,glycan array binding signal (z-score),[25],-0.854
same,glycan array binding signal (z-score),[26],1.05
same,glycan array binding signal (z-score),[27],0.436
same,glycan array binding signal (z-score),[28],-0.27
same,glycan array binding signal (z-score),[29],-0.413
same,glycan array binding signal (z-score),[30],-0.332

# 2 entries picked at random from the list so far, as already listed:
binder,measurement,setting,value
B1,glycan array binding signal (z-score),[5],-0.057
same,glycan array binding signal (z-score),[20],1.16
